Reference: PMC12040169 (PLOS Biology, 2025)
This is one part of the list.

What follows are molecules tested on T1, CTL2-GFP (C. trachomatis L2/434/Bu, GFP-expressing). Conditions: bulk GFP, single well; 28.5 h, 10 µM; inhibitor.
T1 construct: L2/434/Bu, GFP-expressing
Set-up: species or system HeLa; Intracellular C. trachomatis growth in HeLa cells, bulk GFP fluorescence relative to DMSO

SMILES	% of control remaining
CCn1c(C(CC(C)C)NC(=O)C2CC2)nc2cccnc21 (centres unmarked) [CBK283736]	89.076%
COc1cc(CNc2cccc(-c3ccsc3)n2)cc(OC)c1 [CBK037592]	108.406%
O=C(c1ccco1)N1CCN(c2ncnc3scc(-c4cccs4)c23)CC1 [CBK267208]	102.3%
CCn1c(SCC(=O)Nc2cccc([N+](=O)[O-])c2)nnc1-c1cc(Br)ccc1O [CBK267980]	128.031%
Cc1cc(=O)[nH]c(-n2nc(C)cc2NC(=O)c2ccccc2)n1 [CBK287653]	118.482%
Cc1nn(CC(=O)NCC2CC2)c(=O)c2cc3sccc3n12 [CBK284025]	130.147%
COc1ccccc1CN(Cc1cccnc1)C(=O)CCC(F)(F)F [CBK307713]	141.749%
FC(F)c1cc([C@@H]2CN(CC3CCOC3)C[C@H]2c2ccccc2)n[nH]1 (some centres unmarked) [CBK285430]	105.058%
O=S(=O)(c1ccc2ccccc2c1)N1CCN(C2CCC(c3ccccc3)CC2)CC1 (centres unmarked) [CBK264152]	100%
O=C(O)CCc1ccc(-c2ccc(Cl)cc2)[nH]1 [CBK264781]	99.428%
O=C(Cc1ccc(F)cc1)Nc1cccc(-c2noc(-c3ccc(F)cc3)n2)c1 [CBK299821]	108.563%
O=C1CCC(=O)N1CCOc1nccnc1OC1CCN(Cc2ccccc2-c2ccccc2)CC1 [CBK084344]	112.796%
O=C(Nc1cnc(-c2ccc(F)c(Cl)c2)c(-c2cccnc2)n1)c1ccc(N2CCCC2=O)cc1 [CBK036794]	100.869%
Cc1nc(C)c(CCC(=O)N2CCCCC2Cn2cccn2)c(=O)[nH]1 (centres unmarked) [CBK305310]	135.28%
CC1(C)CC(=O)c2sc(NC(=O)c3ccc(Oc4ccccc4)cc3)nc2C1 [CBK144106]	95.99%
COc1ccc(Nc2nc(N)nc(CN3CC(C)CC(C)C3)n2)cc1 (centres unmarked) [CBK288154]	100.905%
Cc1cc(OCCCNCCO)ccc1Cl [CBK262230]	119.652%
CC(=O)Nc1ccc(OCC(O)Cn2cnc3cc(C)c(C)cc32)cc1 (centres unmarked) [CBK304545]	115.452%
CCn1cc(-c2cncn2CCOc2ccc(Cl)cc2)cn1 [CBK281776]	152.203%
CCOC(=O)C1(C2CCCCC2)CCN(C(=O)Cc2ccc(Cl)c(Cl)c2)CC1 [CBK136922]	124.441%
CCC(CN1CCOCC1)NC(=O)Cc1coc2c(C)c(C)ccc12 (centres unmarked) [CBK282813]	130.972%
COc1cc(C)c(Nc2cc(-c3ccc(CC(C)C)cc3)ncn2)cc1OC [CBK090785]	119.244%
N#Cc1cc(Nc2ccc(Cc3ccncc3)cc2)c([N+](=O)[O-])cc1C#N [CBK264090]	129.859%
CCCc1nnc(NC(=O)CN2CCc3c(c(CO)nn3C)C2)s1 [CBK307172]	133.934%
CC1CN(Cc2nc3c(c(=O)n(C)c(=O)n3C)n2CCCO)CC(C)O1 (centres unmarked) [CBK269298]	131.402%

2 compounds picked at random from the list so far, as already listed:
SMILES	% of control remaining
Cc1cc(OCCCNCCO)ccc1Cl [CBK262230]	119.652%
CCn1c(SCC(=O)Nc2cccc([N+](=O)[O-])c2)nnc1-c1cc(Br)ccc1O [CBK267980]	128.031%

Going on with the list:

SMILES	% of control remaining
CN(C)C(=O)[C@H]1CC[C@]2(CC1)CNC(=O)c1ccccc1O2 [CBK284894]	141.439%
CCOc1ccc(-c2n[nH]c(C)c2-c2ccc(OC)c(OC)c2)c(O)c1 [CBK288106]	116.607%
c1csc(-c2nccnc2OC2CCCCC2)c1 [CBK107060]	117.88%
O=C(Nc1ncn(CC(=O)N2CCCCCC2)n1)c1ccsc1 [CBK304974]	112.765%
c1ccc(CCN2CCN(Cc3ncc[nH]3)CC2)cc1 [CBK138328]	78.3517%
CCCc1ccc(S(=O)(=O)Nc2ccc(C(=O)O)cc2)cc1 [CBK034044]	87.5218%
O=C(CCC(=O)c1ccc2c(c1)OCCO2)OCC(=O)c1ccc(F)cc1 [CBK264679]	112.988%
O=C(NC[C@H]1CC[C@H](C(=O)O)CC1)c1cc2ccccc2[nH]1 [CBK287069]	102.381%
COc1ccccc1-n1c(C)c(C(C)=O)c2cc(O)ccc21 [CBK115320]	106.428%
CNC(=O)C1(Cc2ccccc2-c2cccs2)CCN(C(=O)COc2ccccc2)CC1 [CBK285684]	103.506%
Cc1ccc(OCC(=O)N2CCN(S(=O)(=O)c3ccc4ccccc4c3)CC2)cc1 [CBK264200]	111.967%
O=C(c1ccccc1F)[C@H]1CCCN(C(=O)c2cc(C3CC3)n[nH]2)C1 [CBK284330]	110.892%
O=S(=O)(Nc1nnn[nH]1)c1ccccc1Br [CBK062386]	110.568%
O=C1CCCC[C@]2(CN(Cc3ccccc3)C[C@H]2c2ccccn2)N1 [CBK283340]	133.667%
CCn1c(=O)oc2cc(NC(=O)NCCN3CCCCC3CO)ccc21 (centres unmarked) [CBK306565]	99.8287%
CSCc1ccc(C(=O)Nc2cc(C(=O)O)ccc2C)cc1 [CBK297107]	125.888%
CC12CCC(C(=O)N(CC(O)Cn3c4ccc(Br)cc4c4cc(Br)ccc43)C1=O)C2(C)C (centres unmarked) [CBK262449]	125.333%
CCc1nc2ccc(C(=O)N3CCCCC3)cn2c1N(C)C(=O)c1cccc(OC)c1 [CBK146392]	124.095%
Cc1cc(C2CCCCCN2C(=O)c2cccc(F)c2)on1 (centres unmarked) [CBK285448]	121.593%
CS(=O)(=O)N1CC2(CCN(CCCCC3NC(=O)NC3=O)CC2)c2ccccc21 (centres unmarked) [CBK126684]	111.908%
Cc1nc2c(c(=O)[nH]1)CC[C@@H]1CN(C(=O)CCc3ccccc3)C[C@H]21 [CBK284414]	105.846%
CC(C)(C)c1ccc(OCC(=O)Nc2ccc(OCC(=O)O)cc2)cc1 [CBK287013]	107.739%
Cc1cc(NC(=O)C2CCCC2)nc2c1c(=O)oc1ccccc12 [CBK287438]	141.547%
CCC1CCCCN1C(=O)Cc1c(C)nc(-c2cccnc2)[nH]c1=O (centres unmarked) [CBK306240]	143.232%
CC(C)NC(=O)c1ccc(-n2cccn2)c(C#Cc2cccnc2)c1 [CBK284523]	159.206%
